# Results from one PubChem assay

By UniProt entry, the sequences of proteins in these tests, tags left out.
UniProt P51449, whole entry, target on record: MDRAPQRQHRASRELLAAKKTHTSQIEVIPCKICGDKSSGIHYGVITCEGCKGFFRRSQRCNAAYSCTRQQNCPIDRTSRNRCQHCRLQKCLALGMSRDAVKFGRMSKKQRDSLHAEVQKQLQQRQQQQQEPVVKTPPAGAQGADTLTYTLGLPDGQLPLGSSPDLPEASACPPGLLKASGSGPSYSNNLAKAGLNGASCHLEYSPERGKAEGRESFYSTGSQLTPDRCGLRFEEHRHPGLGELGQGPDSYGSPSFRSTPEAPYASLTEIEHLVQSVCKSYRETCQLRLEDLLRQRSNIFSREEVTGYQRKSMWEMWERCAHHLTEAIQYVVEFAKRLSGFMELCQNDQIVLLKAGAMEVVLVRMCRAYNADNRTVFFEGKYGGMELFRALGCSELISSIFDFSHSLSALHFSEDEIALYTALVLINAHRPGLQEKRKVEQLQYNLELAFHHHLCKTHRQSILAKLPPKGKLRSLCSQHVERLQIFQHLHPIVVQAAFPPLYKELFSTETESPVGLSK

Source: PubChem BioAssay AID651802 (NCATS, 2012).

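A cellular reporter test looks for lowered ROR-gamma-driven luciferase light in inducible CHO cells, measured 16 hours after dosing.
Each compound was run as a concentration series from about 0.00059 to 92 µM.
The number is the fitted half-maximal concentration for loss of reporter light; a lower value means a more potent inhibitor.
Calls come from curve class plus fitted potency: inactive compounds score zero, actives score 40 to 100, and inconclusive ones receive a positive score starting at 1.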

Values are in µM.
All entries here are filed as inconclusive.
These entries are mostly ones the record files as inconclusive; other results of the assay are not listed here.
A potency from a partial, single-point or poor curve is only a rough figure.
Activity scores are not listed here.
An entry listed twice with the same setting is a separate test.

{"compound": "CCCCC(CC)COCCCN", "stereo": "stereo not drawn", "potency (µM)": "33.49", "curve": "inhibitor, partial curve, poor fit"}
{"compound": "CCc1cccc(CC)c1N(COC)C(=O)CCl", "potency (µM)": "37.58", "curve": "inhibitor, partial curve, poor fit"}
{"compound": "CC/C=C/C#N", "potency (µM)": "37.58", "curve": "inhibitor, single point"}
{"compound": "Nc1ccc(Cc2ccc(N)c(Cl)c2)cc1Cl", "potency (µM)": "29.85", "curve": "inhibitor, partial curve, poor fit"}
{"compound": "COc1cc([C@H]2Oc3cc([C@H]4Oc5cc(O)cc(O)c5C(=O)[C@@H]4O)ccc3O[C@@H]2CO)ccc1O", "potency (µM)": "18.83", "curve": "inhibitor, full curve, poor fit"}
{"compound": "Oc1ccc(Cl)c(Cl)c1Cl", "potency (µM)": "14.96", "curve": "inhibitor, partial curve, poor fit"}
{"compound": "Cc1cc(Cl)ccc1O", "potency (µM)": "18.83", "curve": "inhibitor, partial curve, poor fit"}
{"compound": "Nc1c(Cl)cc([N+](=O)[O-])cc1Cl", "potency (µM)": "26.6", "curve": "inhibitor, partial curve, poor fit"}
{"compound": "O=C1OC(O)C(C(Cl)Cl)=C1Cl", "stereo": "stereo not drawn", "potency (µM)": "59.56", "curve": "inhibitor, partial curve, poor fit"}
{"compound": "CC(=O)O[C@]1(C(C)=O)CC[C@H]2[C@@H]3C=C(Cl)C4=CC(=O)[C@@H]5C[C@@H]5[C@]4(C)[C@H]3CC[C@@]21C", "potency (µM)": "37.58", "curve": "inhibitor, partial curve, poor fit"}
{"compound": "Brc1ccc(Oc2cc(Br)c(Br)cc2Br)c(Br)c1", "potency (µM)": "33.49", "curve": "inhibitor, partial curve, poor fit"}
{"compound": "S=c1[nH]c2ccccc2[nH]1", "potency (µM)": "33.49", "curve": "inhibitor, single point"}
{"compound": "Oc1ccc(Cl)c(Cl)c1", "potency (µM)": "21.13", "curve": "inhibitor, full curve, poor fit"}
{"compound": "O=C(O)c1cc(Cl)cc(Cl)c1", "potency (µM)": "59.56", "curve": "inhibitor, single point"}
{"compound": "C=C(C)[C@H]1CC=C(C)C(=O)C1", "potency (µM)": "0.0596", "curve": "inhibitor, full curve, poor fit"}
{"compound": "c1ccoc1", "potency (µM)": "0.9439", "curve": "inhibitor, full curve, poor fit"}
{"compound": "COc1ccc(N=[N+]([O-])c2ccc(OC)cc2)cc1", "potency (µM)": "16.79", "curve": "inhibitor, partial curve, poor fit"}
{"compound": "Brc1ccc(Oc2cc(Br)c(Br)cc2Br)c(Br)c1", "potency (µM)": "74.98", "curve": "inhibitor, single point"}
{"compound": "COc1ccccc1O", "potency (µM)": "0.1496", "curve": "inhibitor, full curve, poor fit"}

For reference, 2 entries once more:

Compound	potency (µM)	curve
COc1cc([C@H]2Oc3cc([C@H]4Oc5cc(O)cc(O)c5C(=O)[C@@H]4O)ccc3O[C@@H]2CO)ccc1O	18.83	inhibitor, full curve, poor fit
Oc1ccc(Cl)c(Cl)c1Cl	14.96	inhibitor, partial curve, poor fit